Laboratory results from PMC13181761 (Journal of Medicinal Chemistry, 2026).
For some of these results: Strings that start with PEPTIDE1 are HELM notation: dots part the residues, brackets hold end groups and non-standard residues. Bridges are numbered along the chain shown (N, C = ends). [ ]: non-standard residue; d: D form. Trp(1-Me) = Cn1cc(C[C@H](N)C(=O)O)c2ccccc21

How the values were obtained:
[1] = peptide synthesis; details: whole synthesis
[2] = general procedure: Fmoc solid-phase peptide synthesis; details: whole synthesis, 214 nm

| Substance | final HPLC purity [1] [%] | also measured |
| --- | --- | --- |
| Ac-ICIWQDWGAHRCT-NH2 (disulfide 2-12; SMILES CC[C@H](C)[C@H](NC(C)=O)C(=O)N[C@H]1CSSC[C@@H](C(=O)N[C@H](C(N)=O)[C@@H](C)O)NC(=O)[C@H](CCCNC(=N)N)NC(=O)[C@H](Cc2c[nH]cn2)NC(=O)[C@H](C)NC(=O)CNC(=O)[C@H](Cc2c[nH]c3ccccc23)NC(=O)[C@H](CC(=O)O)NC(=O)[C@H](CCC(N)=O)NC(=O)[C@H](Cc2c[nH]c3ccccc23)NC(=O)[C@H]([C@@H](C)CC)NC1=O) | >98 |  |
| Ac-ICI[Trp(1-Me)]QDWGAHRCT-NH2 (disulfide 2-12; SMILES CC[C@H](C)[C@H](NC(C)=O)C(=O)N[C@H]1CSSC[C@@H](C(=O)N[C@H](C(N)=O)[C@@H](C)O)NC(=O)[C@H](CCCNC(=N)N)NC(=O)[C@H](Cc2c[nH]cn2)NC(=O)[C@H](C)NC(=O)CNC(=O)[C@H](Cc2c[nH]c3ccccc23)NC(=O)[C@H](CC(=O)O)NC(=O)[C@H](CCC(N)=O)NC(=O)[C@H](Cc2cn(C)c3ccccc23)NC(=O)[C@H]([C@@H](C)CC)NC1=O) | 95 |  |
| Ac-ICVWQDW[dA]AHRCT-NH2 (disulfide 2-12) |  | final HPLC purity [2]: >98% |
| PEPTIDE1{[ac].I.C.V.[1MeTrp].Q.D.W.G.A.H.R.C.T.[am]}$PEPTIDE1,PEPTIDE1,3:R3-13:R3$$$V2.0 | >98 |  |
| PEPTIDE1{[dY].I.C.I.[Trp1Me].Q.D.W.[Sar].A.H.R.C.[NMeIle].K.K.[am]}$PEPTIDE1,PEPTIDE1,3:R3-13:R3$$$V2.0 |  | final HPLC purity ([1]; Acetate salt): >98% |
| PEPTIDE1{[dY].I.C.I.[Trp1Me].Q.D.W.[Sar].A.H.R.C.[NMeIle].[am]}$PEPTIDE1,PEPTIDE1,3:R3-13:R3$$$V2.0 | >98 |  |
| PEPTIDE1{[dY].I.C.V.[Trp1Me].Q.D.W.[Sar].A.H.R.C.[NMeIle].[am]}$PEPTIDE1,PEPTIDE1,3:R3-13:R3$$$V2.0 | >98 |  |
